Source: publication PMC12040169 (PLOS Biology, 2025)
Some of the results follow.

system: T1, CTL2-GFP (C. trachomatis L2/434/Bu, GFP-expressing); design: species or system HeLa; Intracellular C. trachomatis growth in HeLa cells, bulk GFP fluorescence relative to DMSO; settings: bulk GFP, single well; 28.5 h, 10 µM; inhibitor
T1 construct: L2/434/Bu, GFP-expressing

| Structure (SMILES) | % of control remaining |
| --- | --- |
| CC(C)c1ccc(C(C)NC(=O)Cn2cccc(C(=O)Nc3ccc(F)cc3)c2=O)cc1 (stereo not shown) [CBK286043] | 131.112% |
| CN1CCN(CC(=O)C(C#N)c2ccccc2)CC1 (stereo not shown) [CBK269270] | 156.741% |
| COc1ccc(C)cc1C1(CNC(=O)C2CCCC2N)CCOCC1 (stereo not shown) [CBK304308C] | 110.119% |
| COC(=O)c1cc(S(=O)(=O)NC2CCCc3ccccc32)cn1C (stereo not shown) [CBK304616] | 74.0558% |
| CC(C)(C)OC(=O)n1cccc1-c1cncc(-c2ccc(C(=O)N3CCOCC3)cc2)n1 [CBK138520] | 107.361% |
| Cc1ccccc1CSCC(=O)N1CCN(c2ccccc2)CC1 [CBK058577] | 131.393% |
| O=C(O)c1nccnc1-c1ccc(COc2ccccc2)cc1 [CBK050806] | 124.187% |
| Brc1cn2ccnc2c(NCC2CC2)n1 [CBK037432] | 174.423% |
| CC#Cc1cn([C@H]2C[C@@H](O)[C@@H](CO)O2)c(=O)nc1N [CBK201257] | 129.57% |
| CC(C)[C@@H](CO)NC(=O)c1cnc(-c2cccc(C(F)(F)F)c2)c(-c2cccnc2)c1 [CBK037520] | 120.473% |
| NCCCOc1nc2ccccc2nc1N1CCCC1 [CBK115287] | 100% |
| CC(C)C(NC(=O)c1cc2c([nH]c1=O)CCC2)c1ccc(F)cc1 (stereo not shown) [CBK281662] | 111.122% |
| OCC1CCCN1c1cncc(-c2ccc3c(c2)OCO3)n1 (stereo not shown) [CBK065908] | 107.896% |
| CC(=O)Nc1ccc(S(=O)(=O)N2CCN(c3ccc([N+](=O)[O-])c(NC4CC4)c3)CC2)cc1 [CBK264439] | 128.176% |
| N=C(N)CCCOc1ccccc1-c1ccccc1 [CBK058057] | 93.1206% |
| O=C(Nc1ccc2cc(Br)cnc2n1)C(F)(F)F [CBK063313] | 115.483% |
| COC(=O)[C@H]1CN(C(=O)c2cnn(C)c2C)C[C@@H]1c1ccc(F)cc1 [CBK283721] | 137.249% |
| Clc1cc(Nc2cccc(OCc3ccccc3)c2)n2nccc2n1 [CBK037109] | 129.452% |
| COc1ccc(C=CC(=O)Nc2sc3c(c2C(=O)O)CCCC3)cc1OC [CBK296103] | 5.887% |
| Cc1cc(C)cc(C(=O)N2CCC(NC(=O)c3cnn(C)c3)CC2)c1 [CBK305723] | 104.521% |
| COc1ccc(Nc2cccc(-c3ccc(CCC(=O)O)cc3)n2)cc1 [CBK036943] | 160.921% |
| Cc1onc(-c2ccc(Cl)cc2)c1C(=O)N1CCN(C2CCN(C)CC2)CC1 [CBK149087] | 78.2025% |
| CCCc1ccc(S(=O)(=O)N2CCN(CC(=O)Nc3cc(C(C)C)no3)CC2)cc1 [CBK295629] | 122.378% |
| Cc1ccc2c(c1)cc(C)c1nn(CC(=O)N3CCCC3)c(=O)n12 [CBK283872] | 114.955% |
| OC12CCCON1OC(c1ccccc1)C2 (stereo not shown) [CBK006752] | 125.714% |
| O=C(O)c1cccc(CSc2nnc(-c3ccncc3)o2)c1 [CBK266310] | 154.118% |
| Cc1ccc(S(=O)(=O)NC(C)(C)CN2CCN(C(c3ccccc3)c3ccccc3)CC2)cc1 [CBK262799] | 132.306% |

Structures from the list above containing a CF3 group, in the order listed:

| Structure (SMILES) | % of control remaining |
| --- | --- |
| CC(C)[C@@H](CO)NC(=O)c1cnc(-c2cccc(C(F)(F)F)c2)c(-c2cccnc2)c1 [CBK037520] | 120.473% |
| O=C(Nc1ccc2cc(Br)cnc2n1)C(F)(F)F [CBK063313] | 115.483% |

Next structures follow:

| Structure (SMILES) | % of control remaining |
| --- | --- |
| Cc1cccc(-n2ncc3c(=O)n(CC(=O)NC4CCCCC4)cnc32)c1C [CBK287694] | 142.527% |
| Cc1ccc2ncnc(NC(CC(C)C)C(=O)O)c2c1 (stereo not shown) [CBK275388] | 127.659% |
| C[C@H](Nc1cncc(-c2cccnc2)n1)c1ccccc1 [CBK065807] | 166.147% |
| COc1cccc(C2=NO[C@@](CC(=O)O)(C(=O)NCc3ccccc3)C2)c1OC [CBK286641] | 118.113% |
| O=C(N/N=C/c1ccc(OC(=O)c2cccs2)cc1)c1ccccn1 [CBK262178] | 87.3931% |
| O=C(CSCc1ccccc1)Nc1ccc2c3c(cccc13)CC2 [CBK264916] | 117.332% |
| CC(=O)NC1(c2ccccc2)CCN(C(=O)Nc2ccccc2-c2ccccc2)CC1 [CBK286288] | 114.928% |
| Cc1cc(NC(=O)CN(C)CCNC(=O)C2CCCC2)no1 [CBK305237] | 89.8564% |
| Oc1ccc(NCc2ccc(OCc3cccs3)cc2)cc1 [CBK266586] | 156.974% |
| CC(C)NC(=O)c1sc2ccccc2c1C1CCN(C(=O)CCc2ccccc2)C1 (stereo not shown) [CBK285874] | 118.959% |
| Cc1ccc(S(N)(=O)=O)cc1N [CBK024851] | 121.451% |
| O=C(NC1Cc2ccccc2C1)c1ccno1 [CBK200358] | 117.912% |
| O=C(CCNS(=O)(=O)c1ccccc1Cl)N1CCN(C(=O)C2CC2)CC1 [CBK306025] | 126.004% |
| CCC(O)CN1CCCC(c2nc3cc(C)ccc3[nH]2)C1 (stereo not shown) [CBK304854] | 74.7796% |
| CS(=O)(=O)N(CC(=O)NCc1ccccn1)c1ccc2c(c1)OCO2 [CBK269385] | 122.847% |
| CC(C)(C)c1nsc(NC2CCCCCC2)n1 [CBK075061] | 96.1166% |
| O=C(Nc1cccc(CCc2ccccn2)c1)c1ccc([N+](=O)[O-])cc1 [CBK269653] | 96.2359% |
| c1csc(COc2nccnc2-c2ccsc2)c1 [CBK106770] | 93.3705% |
| C#CCOC(=O)NC(=O)c1csnn1 [CBK006685] | 115.447% |
| COc1ccc([C@@]23CC[C@@H](NC(=O)Nc4ccc(C)c(F)c4F)C[C@@H]2N(C)CC3)cc1OC [CBK073686T] | 115.777% |
| COc1cccc2cc(-c3cncn3CCCC(C)(C)CO)oc12 [CBK281817] | 86.0192% |
| Cc1csc2c(C3CCN(C(=O)c4ccnn4C)CC3)nc(C)n12 [CBK285249] | 125.956% |
| COc1cc(/C=N/NC(=O)c2ccncc2)ccc1OCc1ccc(Cl)cc1 [CBK262454] | 90.2254% |
| COc1ccc(OCCNC(=O)c2cc(Br)cnc2N2CCOCC2)cc1 [CBK076214] | 162.158% |
| O=C(C1=C(O)C(=O)N(Cc2cccnc2)C1c1cccnc1)c1cccs1 (stereo not shown) [CBK264547] | 117.596% |
| O=S(=O)(NCC(c1ccccc1)n1cc(-c2ccccc2)nn1)c1ccccc1 (stereo not shown) [CBK268244] | 153.777% |
| FC(F)(F)c1cccc(CC2CSC(=S)N2)c1 (stereo not shown) [CBK022895] | 76.4094% |

| Structure (SMILES) | % of control remaining |
| --- | --- |
| Cc1cc(C)n(-c2cccc(C(=O)NCCn3ccnc3)c2)n1 [CBK281585] | 100.617% |
| CC(C)(CN1CCCC1)NC(=O)N1CCN(Cc2cccc(O)c2)CC1 [CBK307380] | 135.413% |
| CCN(CCc1ccccn1)S(=O)(=O)c1ccc(OC(F)(F)F)cc1 [CBK044968] | 54.3492% |
| CN1CCN(S(=O)(=O)c2ccc(N3CCOCC3)nc2)CC1 [CBK062434] | 131.6% |
| c1ccc2sc(SCc3nc4c5c6c(sc5ncn4n3)CCCC6)nc2c1 [CBK262923] | 116.444% |
| O=C(CCN1CCN(CCO)CC1)Nc1ccc2c(c1)CCC2 [CBK264262C] | 111.39% |
| O=C(N/N=C/c1ccccc1O)c1cccc(C(=O)N/N=C/c2ccccc2O)n1 [CBK261459] | 96.7113% |
| O=C(CC(CN1CCN(CC(=O)N2CCCC2)CC1)C(=O)O)Nc1ccccc1 (stereo not shown) [CBK286844] | 121.06% |
| Cc1ccc(-c2csc(CC#N)n2)cc1 [CBK047576] | 115.401% |
| O=C1NC/C=C/CC2(CCN(Cc3ccc(Cl)cn3)CC2)C(=O)NCCOc2ccccc21 [CBK292008] | 166.146% |
| Cc1nn(CCC#N)c2nc(-c3ccc(F)cc3)cc(C(=O)O)c12 [CBK296974] | 126.361% |
| CCn1c(C)nc2cc(NC(=O)Cn3cnc4ccccc43)ccc21 [CBK281832] | 138.382% |
| O=C(Nc1cc(Oc2cncc(Cl)c2)cc([N+](=O)[O-])c1)c1nn2c(C(F)(F)F)cc(-c3cccs3)nc2c1Cl [CBK262585] | 98.8036% |
| CC1(C)Cc2c(cnn2-c2ccc(F)cc2)C(N)C1 (stereo not shown) [CBK288200] | 143.843% |
| COCCN1CCN(c2cncc(-c3ccc(O)cc3)n2)CC1 [CBK126951T] | 130.276% |
| Cc1c(C(=O)N2CCCCC2C(N)=O)nnn1Cc1ccc(F)cc1F (stereo not shown) [CBK304425] | 147.503% |
| CC(C)(C)NC(=O)CN1CCN(C(=O)CSc2n[nH]c(=O)n2C2CC2)CC1 [CBK295641] | 118.453% |
| CCOC(=O)c1c(NC(=O)c2cc(-c3ccc(Cl)s3)nc3ccccc23)sc(C)c1CC [CBK262657] | 110.94% |
| Fc1ccc(-c2noc([C@@H]3CCCN3Cc3ncc[nH]3)n2)nc1 [CBK288897] | 109.121% |
| COc1cc(OC)c(C(C)=O)c(OCCOc2nccnc2N2CCNCC2)c1 [CBK013497T] | 107.566% |
| Nn1c(=O)c2ccccc2n2c(SCC(=O)N(c3ccccc3)c3ccccc3)nnc12 [CBK266621] | 166.655% |
| CCCC(=O)Nc1ccc(N2CCNCC2)c2ccccc12 [CBK024619T] | 133.818% |
| CN(C)C(=O)c1cc(-c2ccccc2)cnc1N(C)S(C)(=O)=O [CBK076473] | 103.826% |
| CC(CC(=O)NC1(C#Cc2nccs2)CCCCC1)n1ccnc1 (stereo not shown) [CBK284746] | 79.2689% |
| CN(C)[C@@H]1CN(Cc2ccccc2O)C[C@H]1c1cn(C)c2ccccc12 [CBK284895] | 127.131% |
